The values that follow come from PubChem BioAssay AID2685 (National Center for Advancing Translational Sciences (NCATS), 2010).

The list shows a part of the results. Shown are side measurements of this screen, not its main read-out; they come without a call. The list favours compounds with an active or inconclusive main result. Words in brackets tell the shape of the fitted curve; partial curves, single points and poor fits give uncertain potencies.

The nature of the test: qHTS Assay for Lipid Storage Modulators in Drosophila S3 Cells.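 For cell number change: cells counted by Cell Tracker Red CMTPX staining in the red channel.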 Particulars: BODIPY lipid droplet fluorescence, 18-24 h; for cell number change: measured here: cell count max response, cells fed with added oleic acid. Summed up: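 Drosophila S3 cells loaded with oleic acid (400 uM, as added) and compounds at several concentrations; lipid droplets imaged by 488-nm laser-scanning cytometry, 500–530 nm intensity and object ratio to cell channel. Percent activity normalized to 20 uM Triacsin C.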
(In qHTS, concentration-response curves come from the screen itself.)

[1] abbreviates: measured here: cell number channel AC50, cells fed with added oleic acid.
The mark [2] stands for this setting: measured here: lipid fluorescence (Fed channel) AC50, cells fed with added oleic acid.

For `COc1ccc(NC(=O)C(c2ccc(OC)cc2)N(C)C(=O)c2cnccn2)cc1` (stereo not drawn), the cell number change was found to be 8.65%. Same read-out and setting: the value for `O=C(CNC(=O)c1ccco1)Nc1ccc2c(c1)OCCO2` was -6.11%. For orientation: AC50 means the midpoint of the concentration-response curve, whichever way the signal moves. High values mean weaker potency, low ones greater potency. In the case of `CCn1c(-c2csc(C(C)C)c2)n[nH]c1=S`, the cell number change is 14.1%. In addition, the AC50 under setting [1] is 0.092 µM [rising, full curve, poor fit]. With `COc1ccccc1NC(=O)c1ccccc1S(=O)(=O)c1ccccc1[N+](=O)[O-]`, the cell number change was -5.42%. Moreover, the AC50 under setting [1] was 0.116 µM [rising, full curve, poor fit]. In addition, the half-maximal activity concentration (AC50) under setting [2] is 0.13 µM [rising, full curve, poor fit]. Regarding `CCN(CC)CCNc1nc(C(F)(F)F)nc2c1nnn2Cc1ccccc1`, the cell number change was -1.1%. The AC50 under setting [2] is 18.4 µM [rising, single point]. Turning to `CCNC(=O)C12CCC(C)(c3nc4cc(C)c(C)cc4nc31)C2(C)C` (stereo not drawn), the cell number change was 0.955%.

Turning to `O=C(c1ccc(COc2c(F)c(F)c(F)c(F)c2F)o1)N1CCN(Cc2ccc3c(c2)OCO3)CC1`, the cell number change is -31%. Besides, the AC50 under setting [1] is 29.1 µM [falling, single point]. Further, the AC50 under setting [2] was 29.1 µM [falling, single point]. On to `Fc1ccc(CNC(=S)Nc2cccc(Cl)c2)cc1`, for which the cell number change was -3.14%. With `CN(Cc1cc(=O)n2ccsc2n1)c1ccccc1`, the cell number change was 103%. In the case of `CC(=O)c1ccc(N2CCN(C(=O)c3nn(C)c4c3CS(=O)(=O)c3ccccc3-4)CC2)cc1`, the cell number change was 21.2%. Under setting [2], the AC50 was 0.259 µM [rising, full curve, poor fit]. Turning to `COc1ccc(OC)c(C2Nc3ccccc3NC3=C2C(=O)CC(C)(C)C3)c1` (stereo not drawn), the cell number change is -4.2%. Besides, the AC50 under setting [2] was 29.1 µM [rising, single point]. `O=S(=O)(NCc1ccc(C(F)(F)F)cc1)c1ccc(-n2cnnn2)cc1`: the cell number change is -9.35%. For the same molecule, under setting [2], the AC50 is 6.51 µM [rising, partial curve]. Turning to `Cc1cc(C(=O)CSc2n[nH]c(N)n2)c(C)n1-c1cccc(F)c1`, the cell number change is -14.9%. Besides, the AC50 under setting [2] was 0.259 µM [rising, full curve, poor fit]. With `CCCCn1c(N)c(N(CC(C)C)C(=O)C2CC(=O)N(c3ccc4c(c3)OCCO4)C2)c(=O)[nH]c1=O` (stereo not drawn), the cell number change came out at 12%. `N#Cc1cc([N+](=O)[O-])ccc1NC(=O)COC(=O)C12CC3CC(CC(C3)C1)C2`: the cell number change is -18.3%. Under setting [2], the AC50 is 29.1 µM [falling, single point]. As for `O=C(Nc1cc(F)ccc1F)C1CCCN(c2ncnc3c2nc2n3CCCCC2)C1` (stereo not drawn), the cell number change stood at 13.4%. Further, the AC50 under setting [2] was 4.61 µM [falling, single point].

`Cc1nn(C)c(Cl)c1/C=C/C(=O)O`: the cell number change was -28%. Regarding `Cc1ccc(C(=O)Oc2cccc(NC(=O)c3ccco3)c2)cc1S(=O)(=O)N1CCC(C)CC1`, the cell number change was -68.2%. Besides, under setting [1], the AC50 is 29.1 µM [falling, single point]. With `CNC(=S)Nc1cc2oc3ccccc3c2cc1OC`, the cell number change stood at 18.5%. As for `COC(=O)CN1C(=S)N(c2ccc(Cl)cc2)C(=O)C1CC(=O)Nc1ccccc1` (stereo not drawn), the cell number change was -43.6%. Further, the AC50 under setting [1] is 29.1 µM [falling, single point]. Further, under setting [2], the AC50 was 29.1 µM [falling, single point]. As to `Cc1cc([N+](=O)[O-])ccc1NC(=O)Nc1ccc(F)cc1F`, the cell number change was -47.7%. The AC50 under setting [1] was 11.2 µM [falling, partial curve]. In addition, under setting [2], the AC50 was 14.1 µM [falling, single point].

On to `Cc1ccc(N(CCC#N)C(=O)CSc2nnc3ccccn23)cc1`, for which the cell number change is -8.28%. In addition, the AC50 under setting [2] was 1.3 µM [rising, full curve, poor fit]. On to `C=CCn1c(SCC(=O)Nc2cc(C)ccc2C)nnc1-c1cnccn1`, for which the cell number change is 2.9%. Moreover, the AC50 under setting [2] was 0.00411 µM [rising, full curve, poor fit]. Take `Cc1cc(C)nc(Nc2n[nH]c(COc3cccc4ccccc34)n2)n1`: the cell number change was 21.6%.

For the molecule `Cc1ccc(N2C(=O)C3CCCN3C2=S)c(C)c1` (stereo not drawn), the cell number change was -19.9%. Under setting [2], the AC50 is 20.6 µM [rising, single point]. For `COC(=O)c1ccc2c(=O)n(NC(=O)C(c3ccccc3)c3ccccc3)c(=S)[nH]c2c1`, the cell number change was 35.7%. Under setting [1], the AC50 was 29.1 µM [rising, single point]. Consider `O=C(/C=C/c1ccc([N+](=O)[O-])cc1)NCc1ccccn1`, for which the AC50 under setting [2] was 14.6 µM [rising, partial curve].

`Cc1nnc(SCC(=O)c2ccc([N+](=O)[O-])cc2)s1`: the cell number change is -24.9%.

With `Nc1nc(Br)c2ccccc2c1-c1ccccc1`, the cell number change was 33.6%. For the same molecule, the AC50 under setting [1] was 20.6 µM [rising, single point]. For the same molecule, the AC50 under setting [2] is 32.6 µM [rising, single point].

Turning to `CCOc1ccccc1C(=O)Nc1cc2c(cc1N1CCCC1)n(CC)c(=O)n2CC`, the cell number change is -16.4%. In addition, the AC50 under setting [1] is 0.326 µM [falling, full curve]. The AC50 under setting [2] was 0.58 µM [falling, single point]. `COc1cccc(N2CCN(C(C)C(=O)NC34CC5CC(CC(C5)C3)C4)CC2)c1` (stereo not drawn): the AC50 under setting [2] is 5.62 µM [falling, single point]. With `O=C(NCc1ccco1)C1CCN(C(=O)Cc2ccccc2)CC1`, the cell number change was -133%. `O=S(=O)(c1cnc[nH]1)N1CCN(C(c2ccc(F)cc2)c2ccc(F)cc2)CC1`: the cell number change is -30.8%. Further, the AC50 under setting [1] was 16.4 µM [falling, single point]. With `Cc1ccc(-c2nc3ccccc3[nH]2)cc1NC(=S)NC(=O)c1ccccc1Br`, the cell number change was -41%. The AC50 under setting [1] was 18.4 µM [falling, single point]. The AC50 under setting [2] is 29.1 µM [falling, single point]. On to `CCOC(=O)C1=CC[C@H]2c3c(c4ccccc4n3C)C(=O)C1N2S(=O)(=O)c1ccc(C)cc1`, for which the cell number change came to 23.7%. The AC50 under setting [2] is 0.0731 µM [rising, single point]. Turning to `CC(C)Cn1c(N)c(C(=O)COC(=O)c2ccc(Cl)cc2)c(=O)n(C)c1=O`, under setting [1], the AC50 was 2.59 µM [rising, partial curve].

As to `Cc1cc2c(cc1S(=O)(=O)N1CCc3ccccc31)NC(=O)CO2`, the cell number change turned out to be 97.6%. Besides, the AC50 under setting [1] was 13 µM [rising, partial curve]. Regarding `O=C1/C(=C/c2ccco2)SC(=S)N1CC1CCCO1` (stereo not drawn), the cell number change is -4.44%. Further, under setting [2], the AC50 is 0.731 µM [falling, single point]. Consider `CCN1CCN(/C=N/c2nc3c(s2)CCCC3)CC1`, for which the cell number change stood at 9.39%. In addition, the AC50 under setting [2] is 2.59 µM [falling, full curve, poor fit].

Turning to `CCOC(=O)C1CCN(S(=O)(=O)c2c(C)[nH]c(=O)[nH]c2=O)CC1`, the cell number change is -177%. The AC50 under setting [1] was 29.1 µM [falling, single point].
